These results are taken from US20230174472A1, “THERAPEUTIC USE OF PLEUROMUTILINS” (priority 2020, published 2023).

The series has as its system HEp2 cells. The series is described as follows: cell viability of uninfected HEp2 cells (XTT). The conditions noted are these: read-out: TC50. A general note: Tetrazolium assays rely on reduction of a dye to a coloured formazan, in cell work by metabolically active cells.

Like-named read-outs stand apart in the source and are kept apart here. A value given as a limit tells only on which side of the number the result lay.

For `Cc1ccc(CCCO)c(NCc2ccc3nc(NCCCN4CCOCC4)n(Cc4nc(C)ccc4O)c3c2)c1` [TMC353121], the CC50 by setting is: (Example 8, uninfected drug control wells, 6 days) > 100 nM; (Example 9, MOI 0.0004 series) > 100 nM; (Example 9, MOI 0.0008 series) > 100 nM; (Example 9, MOI 0.001 series) > 100 nM; (Example 9, MOI 0.003 series) > 100 nM; (Example 10, RSV ALONG assay) > 1000 nM. In addition, the CC50 (Example 10, RSV B18537 assay) was > 1000 nM.
